The list shows a part of the results.

This assay concerns the target T1, OsSMF1 (Oryza sativa, UniProt Q6ZLB0 1-436).
T1 sequence: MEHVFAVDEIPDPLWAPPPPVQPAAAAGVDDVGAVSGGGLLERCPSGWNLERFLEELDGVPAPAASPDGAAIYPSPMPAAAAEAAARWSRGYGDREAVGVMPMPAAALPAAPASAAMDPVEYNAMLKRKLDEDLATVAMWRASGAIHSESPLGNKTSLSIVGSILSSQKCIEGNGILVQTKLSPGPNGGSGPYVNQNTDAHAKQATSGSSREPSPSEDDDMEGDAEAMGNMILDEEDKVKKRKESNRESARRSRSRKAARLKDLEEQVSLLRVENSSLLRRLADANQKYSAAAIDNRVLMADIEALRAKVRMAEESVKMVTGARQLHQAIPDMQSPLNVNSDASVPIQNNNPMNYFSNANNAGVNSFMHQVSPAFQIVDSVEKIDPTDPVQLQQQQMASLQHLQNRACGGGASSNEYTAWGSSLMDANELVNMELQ
In words: protein-binding microarray (RPBM); PBS, 2% BSA, 51.3 ng/ul salmon testes DNA, 50 uM zinc acetate, 200 nM TF, 25 C, 1 h; high values mean tight binding. To be noted: protein: recombinant; tags: N-terminal polyhistidine and DsRed monomer fusion (pET32a); chain copies: 2; label: CyDye5-dUTP incorporated in the synthesized complementary strand; 3' TTTTT single-stranded linker to array surface; dsDNA, one strand shown. An outline of the steps:
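Binding signal here means per-feature fluorescence intensity in arbitrary units. The values were read on an Axon 4000B scanner after a custom Agilent array, double-stranded by primer extension with Cy5-dUTP, was incubated with 200 nM protein at 25 °C for 1 h in PBS with 2% BSA, salmon testes DNA and 50 µM zinc acetate, then washed. The proteins were transcription factors with an N-terminal polyhistidine tag and DsRed, expressed in E. coli BL21-CodonPlus and purified on Ni–NTA.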
Take “TGGGTTGTTGCGTGTTACGATGACGGTTGCAAATCGTGTTCGGAGTCACCTAGTGCAG”: the binding signal is 6000 fluorescence intensity (a.u.).

In the case of “ATTCTGAATAACAAACTATAGATCATTCAAGTCACAACGACGGAGTCACCTAGTGCAG”, the binding signal is 3350 fluorescence intensity (a.u.).

Turning to “ACGCGCTGACGCACGGGCTCAGCTGCATCAGGTCGCACGACGGAGTCACCTAGTGCAG”, the binding signal was 5680 fluorescence intensity (a.u.).

For “CGGAGATACCTCCGATGACCTGGGCCGTAAAAGGCCCATACGGAGTCACCTAGTGCAG”, the binding signal was 3490 fluorescence intensity (a.u.).

With “AGAGAGAGAGATAGAGAGAGAGAGAGTGACACAAAACCCTCGGAGTCACCTAGTGCAG”, the binding signal is 3310 fluorescence intensity (a.u.).

Regarding “GGAAGATTAGTTTAATCCGACCCACGCATCGCCATGGACCCGGAGTCACCTAGTGCAG”, the binding signal is 3170 fluorescence intensity (a.u.).

For “GAGCAGAGCTCTCCTTGATCAGGTCCAATATTCCAGTATGCGGAGTCACCTAGTGCAG”, the binding signal was 4630 fluorescence intensity (a.u.).

As for “ACAGTGGATCCCCGAATTGTCACGGCTGATGTAAGCATATCGGAGTCACCTAGTGCAG”, the binding signal was 6040 fluorescence intensity (a.u.).

As for “CCAGCCACCCAGGTGAATTGGACACGGACCTTCGATTTTCCGGAGTCACCTAGTGCAG”, the binding signal is 3650 fluorescence intensity (a.u.).

For “CCGGCGTACGTCGTCAGCGTTCCAGCCCAAACACATTCCACGGAGTCACCTAGTGCAG”, the binding signal was 3350 fluorescence intensity (a.u.).

For “GTCTCACCGTCGGACTTGTGGCCGAGCTCCCACGTCAGCTCGGAGTCACCTAGTGCAG”, the binding signal was 22800 fluorescence intensity (a.u.).

Turning to “TAAGCCTCTGATGAAACTGATGAAACTTGGAGGACTACTTCGGAGTCACCTAGTGCAG”, the binding signal was 26600 fluorescence intensity (a.u.).

As for “AACCATAATGTTTGTGACACATTAAGGGCCTGTTCACTTTCGGAGTCACCTAGTGCAG”, the binding signal is 3660 fluorescence intensity (a.u.).

For the sequence “GCCGCCTCCCTTCTCGCAGCTCTGGTGACGCCTCCTGTCTCGGAGTCACCTAGTGCAG”, the binding signal was 3530 fluorescence intensity (a.u.).

As to “GAGAGATGGGGAGAGATCAAGAGGAAGAAGATCAGGGGTGCGGAGTCACCTAGTGCAG”, the binding signal is 3160 fluorescence intensity (a.u.).

On to “CCCTGCCGCCTGCGCCCATCTCCGTCATGCGAGCTGAAGGCGGAGTCACCTAGTGCAG”, for which the binding signal is 3520 fluorescence intensity (a.u.).

Take “TGACATGTGGGCCCGAGGGTCCGTGGGGTCCACGTGTGAGCGGAGTCACCTAGTGCAG”: the binding signal is 7720 fluorescence intensity (a.u.).

As for “CCCATACACGTATGCATACGTGCGTCATACTTTAATTACTCGGAGTCACCTAGTGCAG”, the binding signal was 6820 fluorescence intensity (a.u.).

As to “TCGCTCTGTACTTTACACGTTGGTTCCTTTTGTATGTGATCGGAGTCACCTAGTGCAG”, the binding signal was 3250 fluorescence intensity (a.u.).

In the case of “CGTCCTTATTGTGGTTTTCCACGTGTTTGTCTCTGTGTTTCGGAGTCACCTAGTGCAG”, the binding signal was 10100 fluorescence intensity (a.u.).

As for “ATACCCTCTGCTTCCTTCCTACGCTACTGTCTTTCTTCTTCGGAGTCACCTAGTGCAG”, the binding signal was 3560 fluorescence intensity (a.u.).

As to “CGAGTTTAGAATCCACACCATGATTACATGTAAACAACGTCGGAGTCACCTAGTGCAG”, the binding signal is 44700 fluorescence intensity (a.u.).

Consider “GGTGGGTAGCCGTCGTCACTCCACTGCGCTCTCGCTGTCCCGGAGTCACCTAGTGCAG”, for which the binding signal was 4350 fluorescence intensity (a.u.).

In the case of “AGATATAGATCTGATGCAATTACAACCAGCCAAATGACGTCGGAGTCACCTAGTGCAG”, the binding signal is 3930 fluorescence intensity (a.u.).

For the sequence “TTATCTAAAACATCAATTAATATGGAACTGGTGGAGGGAGCGGAGTCACCTAGTGCAG”, the binding signal is 26500 fluorescence intensity (a.u.).

For the sequence “GTTTCTCCGAGAACGATCAGTGCGCCAGACATTATAAGCGCGGAGTCACCTAGTGCAG”, the binding signal is 31500 fluorescence intensity (a.u.).

In the case of “GTAAGCTCTTACGCACACTGTGCAGCGACGCTTGCAGTGACGGAGTCACCTAGTGCAG”, the binding signal was 3420 fluorescence intensity (a.u.).

Regarding “GGTTTAACCGTTTGGTAGCTGACATGTGCGCCTGGGCATACGGAGTCACCTAGTGCAG”, the binding signal is 3380 fluorescence intensity (a.u.).

On to “ATTTTGAGAAACGGAAGAAGTAGCAAAACTTATGTTTGTGCGGAGTCACCTAGTGCAG”, for which the binding signal is 3140 fluorescence intensity (a.u.).

Take “AGGGTAGATGAGGTGCCTTAGTGCCTATGTGGCAAAGTCCCGGAGTCACCTAGTGCAG”: the binding signal is 7360 fluorescence intensity (a.u.).

In the case of “ATCCAGATTTACTTGGTGAGGCCCTAGGCGTGAGTAGGCACGGAGTCACCTAGTGCAG”, the binding signal is 3870 fluorescence intensity (a.u.).

“CTTCGATCTAATCTTCTTTCCTAATGCCGATATTACCAAACGGAGTCACCTAGTGCAG”: the binding signal was 31600 fluorescence intensity (a.u.).

For the sequence “TAGAAAGAATAAGGGATTAGTGTCTACTAGGTGTCATTGTCGGAGTCACCTAGTGCAG”, the binding signal was 3510 fluorescence intensity (a.u.).

“GGTTGTTGAGATTAGTCCTATCCTTTGTACACGCCACGGCCGGAGTCACCTAGTGCAG”: the binding signal is 3520 fluorescence intensity (a.u.).

Take “GTTGAGTCTGCCCTCGTAACCACCAACTAACATGTAAGCCCGGAGTCACCTAGTGCAG”: the binding signal is 3150 fluorescence intensity (a.u.).

Regarding “TGTCCAAAGCCCACACTGACACGTGGGCCCGAAGCGCACTCGGAGTCACCTAGTGCAG”, the binding signal is 10300 fluorescence intensity (a.u.).

For “TTAGCATCAGAAGCTTTAAACTTTTGAGCTAGTCTCAGTGCGGAGTCACCTAGTGCAG”, the binding signal is 3180 fluorescence intensity (a.u.).

As for “GCAAATGGCGCTGTGCTTGAACCGCAAGGGAGAGAAGAGGCGGAGTCACCTAGTGCAG”, the binding signal was 29000 fluorescence intensity (a.u.).

“TGACATGTGGGGCCCACGCTGACTCAGCCGCCACGTCAGACGGAGTCACCTAGTGCAG”: the binding signal is 19600 fluorescence intensity (a.u.).

Consider “CCTCCCTCAACTGCTGACTCAAACGAGTCAACCGCCGAACCGGAGTCACCTAGTGCAG”, for which the binding signal is 7030 fluorescence intensity (a.u.).

On to “GAGAATTTGCTACTAATTGACTTACCAATTTGGAATTTACCGGAGTCACCTAGTGCAG”, for which the binding signal was 46100 fluorescence intensity (a.u.).

Regarding “TGAAAATGATGTCAATCAAACATGAGTGGGGCCTGCTTTGCGGAGTCACCTAGTGCAG”, the binding signal was 3290 fluorescence intensity (a.u.).

Values taken from publication PMC7819943, “Rice protein-binding microarrays: a tool to detect cis-acting elements near promoter regions in rice”.
